Results published in patent US20230142592A1, “AROMATIC COMPOUND, ORGANIC SEMICONDUCTOR LAYER AND ORGANIC THIN FILM TRANSISTOR” (TOSOH CORPORATION, priority 2020, published 2023).

Assays:
[1] = Bottom gate-bottom contact p-type organic thin film transistor, transfer characteristics; conditions: for carrier mobility for holes / current ON/OFF ratio: before annealing; for carrier mobility for holes after annealing / current ON/OFF ratio after annealing: annealed at 130° C. for 10 min
[2] = Top gate-bottom contact p-type organic thin film transistor, transfer characteristics
[3] = drop cast from toluene solution
[4] = drop cast from toluene solution, before annealing
[5] = 0.20% by weight solution in anisole (60° C.)

Compound	carrier mobility for holes [1, 3] [cm^2/V. sec]	current ON/OFF ratio [1, 3]	carrier mobility for holes after annealing ([1]; toluene solution) [cm^2/V•sec]	current ON/OFF ratio after annealing ([1]; toluene solution)	carrier mobility for holes after annealing ([2]; annealed at 130° C. for 10 min) [cm^2/V•sec]	current ON/OFF ratio after annealing ([2]; annealed at 130° C. for 10 min)	carrier mobility for holes [2, 4] [cm^2/V. sec]	current ON/OFF ratio [2, 4]	carrier mobility for holes [1, 5] [cm^2/V. sec]	current ON/OFF ratio [1, 5]	carrier mobility for holes after annealing ([1]; anisole solution) [cm^2/V•sec]	current ON/OFF ratio after annealing ([1]; anisole solution)
CCCCc1ccc(CCc2cc3ccc4cc5c(ccc6ccsc65)cc4c3s2)cc1 [Compound 17, 2-(2-(4-n-butylphenyl)ethyl)anthra[1,2-b:5,6-b′]dithiophene]	1.13	8.1 × 10^7	1.10	8.0 × 10^7								
c1ccc(CCc2cc3ccc4c(c3s2)-c2ccc3cc(CCc5ccccc5)sc3c2-4)cc1 [Compound 1, 2,7-di(2-phenylethyl)dithienobiphenylene]	2.29	1.5 x 10^6	2.25	1.0 x 10^6	1.40	1.2 x 10^6	1.45	1.6 x 10^6				
CCCCCCCCc1ccc2c(c1)sc1c3ccc(CCCCCCCC)cc3sc21 [2,7-dioctyl[1]benzothieno[3,2-b][1]benzothiophene, reference compound]	1.02	3.0 × 10^5										
2,7-di(2-(4-heptylphenyl)ethyl)dithienobiphenylene [Compound 6]	1.19	1.1 x 10^6	1.15	1.0 x 10^6								
2,7-di(2-(4-propylphenyl)ethyl)dithienobiphenylene [Compound 4]	1.86	1.1 x 10^6	1.70	1.0 x 10^6					2.48	1.6 x 10^6	2.40	1.4 x 10^6
